Some of the results follow.
Tests used:
Test in all cases: log2 fold change, soluble protein after heating vs DMSO (PISA); higher = thermal stabilisation; K562 lysate, 10 uM; active = over 0.2 and 3.5 SD of the protein, either way, in both replicates (recomputed)
alvocidib = compound: CN1CC[C@H](c2c(O)cc(O)c3c(=O)cc(-c4ccccc4Cl)oc23)[C@H](O)C1 [alvocidib]
Procedure, shortened: (§1)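 Quantification was by TMTpro 16plex LC-MS/MS with equalised channel sums, applied to the supernatant after 21,000xg for 90 min. Samples were crude K562 extract at 1 mg/mL protein in PBS pH 7.4 with 1 mM MgCl2, treated with 10 μM compound for 30 min, heated for 3 min across 48°C-58°C, pooled and brought to 0.5% NP-40 at 4°C. Values are log-two fold changes in thermal stability relative to solvent controls, from duplicates.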

Chains of the proteins cited; added tags and fusions are not shown. Lines headed by an entry give the natural chain unless they say otherwise; changes in a name come on top.
UniProt Q96E29: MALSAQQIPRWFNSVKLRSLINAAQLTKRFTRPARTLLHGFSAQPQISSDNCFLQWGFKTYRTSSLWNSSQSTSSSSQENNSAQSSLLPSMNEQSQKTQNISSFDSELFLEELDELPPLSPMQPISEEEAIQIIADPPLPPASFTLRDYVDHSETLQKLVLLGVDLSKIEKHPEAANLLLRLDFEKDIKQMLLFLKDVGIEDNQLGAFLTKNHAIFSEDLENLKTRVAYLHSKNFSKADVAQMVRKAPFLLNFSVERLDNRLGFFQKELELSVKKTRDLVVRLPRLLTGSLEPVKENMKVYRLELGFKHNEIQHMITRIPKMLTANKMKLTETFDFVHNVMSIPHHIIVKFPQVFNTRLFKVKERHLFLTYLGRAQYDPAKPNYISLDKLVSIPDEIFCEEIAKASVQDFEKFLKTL
UniProt Q9UBK8: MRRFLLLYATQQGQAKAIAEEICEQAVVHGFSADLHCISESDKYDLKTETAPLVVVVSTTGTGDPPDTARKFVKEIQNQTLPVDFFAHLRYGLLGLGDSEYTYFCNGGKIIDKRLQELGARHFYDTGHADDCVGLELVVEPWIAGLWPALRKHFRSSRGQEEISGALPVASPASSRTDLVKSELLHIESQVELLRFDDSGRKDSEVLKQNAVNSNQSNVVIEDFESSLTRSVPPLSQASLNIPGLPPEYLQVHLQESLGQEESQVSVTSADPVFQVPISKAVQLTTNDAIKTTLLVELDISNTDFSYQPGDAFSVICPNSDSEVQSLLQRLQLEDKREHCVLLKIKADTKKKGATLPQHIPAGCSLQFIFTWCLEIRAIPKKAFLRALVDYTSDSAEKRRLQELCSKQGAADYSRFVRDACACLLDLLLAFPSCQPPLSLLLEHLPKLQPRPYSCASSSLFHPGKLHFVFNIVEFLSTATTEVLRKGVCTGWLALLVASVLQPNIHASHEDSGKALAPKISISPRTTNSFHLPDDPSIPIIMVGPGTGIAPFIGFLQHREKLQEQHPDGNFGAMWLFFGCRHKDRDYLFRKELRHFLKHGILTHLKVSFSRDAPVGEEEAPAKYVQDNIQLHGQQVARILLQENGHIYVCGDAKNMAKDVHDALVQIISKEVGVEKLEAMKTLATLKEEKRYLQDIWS
UniProt Q15390: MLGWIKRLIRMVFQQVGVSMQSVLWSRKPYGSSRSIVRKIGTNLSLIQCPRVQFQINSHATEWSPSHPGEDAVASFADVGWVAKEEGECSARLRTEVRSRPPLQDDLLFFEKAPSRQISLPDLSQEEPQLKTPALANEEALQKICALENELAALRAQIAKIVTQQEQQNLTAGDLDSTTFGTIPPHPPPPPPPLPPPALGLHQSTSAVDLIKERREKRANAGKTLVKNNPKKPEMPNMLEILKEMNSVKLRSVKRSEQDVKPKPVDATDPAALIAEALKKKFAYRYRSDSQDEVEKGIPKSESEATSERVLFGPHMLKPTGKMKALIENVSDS
UniProt Q9ULH7: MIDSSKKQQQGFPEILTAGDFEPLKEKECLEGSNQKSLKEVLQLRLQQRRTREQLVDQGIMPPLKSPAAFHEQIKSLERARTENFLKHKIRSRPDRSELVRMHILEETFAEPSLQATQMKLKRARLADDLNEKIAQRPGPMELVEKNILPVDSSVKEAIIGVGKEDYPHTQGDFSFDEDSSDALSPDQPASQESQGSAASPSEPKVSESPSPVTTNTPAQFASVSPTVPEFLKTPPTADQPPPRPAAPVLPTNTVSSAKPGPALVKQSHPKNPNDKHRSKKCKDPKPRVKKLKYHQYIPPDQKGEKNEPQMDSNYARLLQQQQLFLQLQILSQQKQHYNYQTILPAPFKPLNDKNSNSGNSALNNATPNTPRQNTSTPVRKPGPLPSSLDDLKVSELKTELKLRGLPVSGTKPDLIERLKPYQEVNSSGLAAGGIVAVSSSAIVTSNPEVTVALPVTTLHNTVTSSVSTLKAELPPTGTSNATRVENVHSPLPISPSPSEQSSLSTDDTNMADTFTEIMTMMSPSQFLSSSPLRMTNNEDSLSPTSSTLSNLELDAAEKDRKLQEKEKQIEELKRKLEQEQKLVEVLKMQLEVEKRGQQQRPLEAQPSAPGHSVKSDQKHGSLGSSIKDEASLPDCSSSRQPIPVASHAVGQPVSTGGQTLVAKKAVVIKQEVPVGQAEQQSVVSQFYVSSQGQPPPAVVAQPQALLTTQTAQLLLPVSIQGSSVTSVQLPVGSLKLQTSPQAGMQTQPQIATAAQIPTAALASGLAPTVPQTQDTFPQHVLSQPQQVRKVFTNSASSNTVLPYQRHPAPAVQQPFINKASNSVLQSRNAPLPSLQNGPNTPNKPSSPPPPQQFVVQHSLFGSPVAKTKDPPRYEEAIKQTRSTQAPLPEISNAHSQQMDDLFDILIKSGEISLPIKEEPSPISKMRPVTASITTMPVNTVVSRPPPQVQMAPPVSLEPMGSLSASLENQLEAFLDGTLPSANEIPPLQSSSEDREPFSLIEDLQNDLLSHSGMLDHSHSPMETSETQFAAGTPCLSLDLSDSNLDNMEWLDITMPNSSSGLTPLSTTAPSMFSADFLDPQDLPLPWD
UniProt Q9C0I1: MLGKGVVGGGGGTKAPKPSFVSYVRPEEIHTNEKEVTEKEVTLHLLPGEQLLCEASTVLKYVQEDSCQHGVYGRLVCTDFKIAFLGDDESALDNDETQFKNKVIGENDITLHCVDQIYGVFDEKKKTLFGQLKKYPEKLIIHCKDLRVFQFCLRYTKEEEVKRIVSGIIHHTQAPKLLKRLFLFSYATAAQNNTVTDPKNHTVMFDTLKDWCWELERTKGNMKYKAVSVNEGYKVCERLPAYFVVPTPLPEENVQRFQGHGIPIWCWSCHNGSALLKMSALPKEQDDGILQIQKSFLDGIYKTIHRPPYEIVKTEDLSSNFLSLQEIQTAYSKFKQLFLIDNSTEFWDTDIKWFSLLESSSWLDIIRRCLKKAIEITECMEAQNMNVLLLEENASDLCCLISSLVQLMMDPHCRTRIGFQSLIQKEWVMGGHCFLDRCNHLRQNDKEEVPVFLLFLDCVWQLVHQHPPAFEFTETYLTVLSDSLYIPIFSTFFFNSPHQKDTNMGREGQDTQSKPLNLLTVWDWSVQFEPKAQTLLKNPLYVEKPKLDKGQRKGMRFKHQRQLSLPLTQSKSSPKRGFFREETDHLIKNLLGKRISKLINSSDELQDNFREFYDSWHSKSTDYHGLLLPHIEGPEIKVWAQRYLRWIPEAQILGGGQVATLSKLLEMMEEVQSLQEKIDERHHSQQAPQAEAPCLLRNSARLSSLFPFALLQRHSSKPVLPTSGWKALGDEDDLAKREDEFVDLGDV
UniProt Q9BTC8: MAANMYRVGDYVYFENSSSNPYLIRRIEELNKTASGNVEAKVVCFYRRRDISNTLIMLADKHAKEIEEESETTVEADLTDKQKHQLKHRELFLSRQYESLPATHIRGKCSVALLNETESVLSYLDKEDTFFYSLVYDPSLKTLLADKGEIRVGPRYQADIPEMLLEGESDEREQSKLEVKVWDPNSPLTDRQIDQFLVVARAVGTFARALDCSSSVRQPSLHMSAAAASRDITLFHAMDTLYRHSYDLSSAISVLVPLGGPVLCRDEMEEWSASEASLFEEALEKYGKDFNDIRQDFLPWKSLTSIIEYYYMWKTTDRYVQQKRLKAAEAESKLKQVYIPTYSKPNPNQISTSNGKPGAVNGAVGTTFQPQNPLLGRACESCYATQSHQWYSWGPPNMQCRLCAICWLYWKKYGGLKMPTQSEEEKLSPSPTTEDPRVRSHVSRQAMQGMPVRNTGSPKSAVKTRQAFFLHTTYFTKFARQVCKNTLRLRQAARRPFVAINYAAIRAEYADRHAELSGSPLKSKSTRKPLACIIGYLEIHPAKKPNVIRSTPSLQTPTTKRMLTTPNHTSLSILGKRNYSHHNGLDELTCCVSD
UniProt Q13614, whole entry, looked up: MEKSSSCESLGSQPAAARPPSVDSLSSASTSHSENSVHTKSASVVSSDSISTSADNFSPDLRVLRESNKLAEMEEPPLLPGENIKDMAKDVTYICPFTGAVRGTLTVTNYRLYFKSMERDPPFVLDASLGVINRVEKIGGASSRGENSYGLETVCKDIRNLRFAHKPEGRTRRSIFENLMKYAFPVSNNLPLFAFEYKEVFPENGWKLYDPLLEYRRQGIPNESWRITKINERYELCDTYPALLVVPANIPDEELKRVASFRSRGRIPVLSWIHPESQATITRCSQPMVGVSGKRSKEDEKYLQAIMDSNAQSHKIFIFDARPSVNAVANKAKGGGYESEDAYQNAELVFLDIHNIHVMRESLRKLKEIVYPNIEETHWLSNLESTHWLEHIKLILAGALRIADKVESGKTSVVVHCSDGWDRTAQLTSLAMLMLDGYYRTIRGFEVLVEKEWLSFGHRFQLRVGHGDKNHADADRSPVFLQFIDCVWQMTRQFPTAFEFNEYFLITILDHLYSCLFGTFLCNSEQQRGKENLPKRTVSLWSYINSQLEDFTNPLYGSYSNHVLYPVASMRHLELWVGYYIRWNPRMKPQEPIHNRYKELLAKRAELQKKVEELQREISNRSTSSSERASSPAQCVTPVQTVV
UniProt Q68DK7: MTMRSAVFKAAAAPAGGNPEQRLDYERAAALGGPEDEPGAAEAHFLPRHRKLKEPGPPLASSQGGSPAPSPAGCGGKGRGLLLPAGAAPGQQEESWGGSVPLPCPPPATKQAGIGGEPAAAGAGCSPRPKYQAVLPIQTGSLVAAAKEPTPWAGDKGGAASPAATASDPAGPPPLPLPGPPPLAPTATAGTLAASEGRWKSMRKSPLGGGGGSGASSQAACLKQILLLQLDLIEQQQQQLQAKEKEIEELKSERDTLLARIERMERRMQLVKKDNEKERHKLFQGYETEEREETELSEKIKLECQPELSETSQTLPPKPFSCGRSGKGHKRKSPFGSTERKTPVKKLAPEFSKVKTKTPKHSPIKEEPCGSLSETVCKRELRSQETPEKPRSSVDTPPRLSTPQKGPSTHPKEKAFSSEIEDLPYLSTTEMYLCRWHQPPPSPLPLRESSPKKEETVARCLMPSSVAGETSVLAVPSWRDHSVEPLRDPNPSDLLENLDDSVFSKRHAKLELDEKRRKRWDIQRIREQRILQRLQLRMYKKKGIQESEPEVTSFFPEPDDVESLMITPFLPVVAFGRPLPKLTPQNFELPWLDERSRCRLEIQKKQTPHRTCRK
UniProt P42285: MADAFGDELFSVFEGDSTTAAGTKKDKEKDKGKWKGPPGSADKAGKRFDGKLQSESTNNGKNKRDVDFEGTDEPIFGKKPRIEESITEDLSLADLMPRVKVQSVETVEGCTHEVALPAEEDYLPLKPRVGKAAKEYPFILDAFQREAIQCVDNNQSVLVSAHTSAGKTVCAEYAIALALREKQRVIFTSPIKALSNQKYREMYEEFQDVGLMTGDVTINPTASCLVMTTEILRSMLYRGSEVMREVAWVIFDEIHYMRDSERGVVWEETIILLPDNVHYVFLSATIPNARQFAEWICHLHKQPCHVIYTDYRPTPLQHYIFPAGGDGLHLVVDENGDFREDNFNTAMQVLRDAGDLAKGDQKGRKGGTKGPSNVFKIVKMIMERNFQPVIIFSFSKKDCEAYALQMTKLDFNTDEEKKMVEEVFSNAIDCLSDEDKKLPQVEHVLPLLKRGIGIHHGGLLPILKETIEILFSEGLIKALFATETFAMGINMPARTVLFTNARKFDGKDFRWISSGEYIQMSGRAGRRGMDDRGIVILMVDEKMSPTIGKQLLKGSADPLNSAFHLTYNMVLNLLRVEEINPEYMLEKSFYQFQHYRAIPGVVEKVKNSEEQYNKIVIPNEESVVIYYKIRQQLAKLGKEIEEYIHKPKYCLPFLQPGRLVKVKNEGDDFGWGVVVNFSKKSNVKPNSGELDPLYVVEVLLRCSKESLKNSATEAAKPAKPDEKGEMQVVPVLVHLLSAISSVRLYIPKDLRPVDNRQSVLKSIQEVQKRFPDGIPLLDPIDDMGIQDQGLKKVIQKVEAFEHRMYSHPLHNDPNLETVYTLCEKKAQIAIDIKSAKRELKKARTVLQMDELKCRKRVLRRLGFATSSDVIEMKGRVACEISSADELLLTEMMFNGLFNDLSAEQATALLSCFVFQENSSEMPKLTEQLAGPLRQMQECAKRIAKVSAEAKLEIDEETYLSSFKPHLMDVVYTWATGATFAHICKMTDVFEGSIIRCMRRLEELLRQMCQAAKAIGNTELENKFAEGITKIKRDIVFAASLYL

Tubastatin A = compound: CN1CCc2c(c3ccccc3n2Cc2ccc(C(=O)NO)cc2)C1 [Tubastatin A]
Procedure, shortened: as §1

[1] = compound: CNC(=O)C1=CC=CC=C1NC2=NC(=NC=C2Cl)NC3=C(C=C(C=C3)N4CCOCC4)OC
Procedure, shortened: as §1

defactinib = compound: CNC(=O)c1ccc(Nc2ncc(C(F)(F)F)c(NCc3nccnc3N(C)S(C)(=O)=O)n2)cc1 [defactinib]
Procedure, shortened: as §1

[2] = compound: CNc1nc(-c2ccc3c(N)n[nH]c3c2)cc(N2C[C@@H](C(=O)NC3CCCCC3)CC[C@H]2C)n1
Procedure, shortened: as §1

encorafenib = compound: COC(=O)N[C@@H](C)CNc1nccc(-c2cn(C(C)C)nc2-c2cc(Cl)cc(NS(C)(=O)=O)c2F)n1 [encorafenib]
Procedure, shortened: as §1

[3] = compound: COC(=O)[C@H](CCSC)NC(=O)C1=C(C=C(C=C1)NC[C@H](CS)N)C2=CC=CC=C2
Procedure, shortened: as §1

alisertib = compound: COc1cc(Nc2ncc3c(n2)-c2ccc(Cl)cc2C(c2c(F)cccc2OC)=NC3)ccc1C(=O)O [alisertib]
Procedure, shortened: as §1

[4] = compound: COc1cc2nc(-c3cc(F)ccc3O)nc(N[C@@H]3CNC[C@H]3C(C)(C)O)c2cc1OC
Procedure, shortened: as §1

gefitinib = compound: COc1cc2ncnc(Nc3ccc(F)c(Cl)c3)c2cc1OCCCN1CCOCC1 [gefitinib]
Procedure, shortened: as §1

lapatinib = compound: CS(=O)(=O)CCNCc1ccc(-c2ccc3ncnc(Nc4ccc(OCc5cccc(F)c5)c(Cl)c4)c3c2)o1 [lapatinib]
Procedure, shortened: as §1

pictilisib = compound: CS(=O)(=O)N1CCN(Cc2cc3nc(-c4cccc5[nH]ncc45)nc(N4CCOCC4)c3s2)CC1 [pictilisib]
Procedure, shortened: as §1

crizotinib = compound: C[C@@H](Oc1cc(-c2cnn(C3CCNCC3)c2)cnc1N)c1c(Cl)ccc(F)c1Cl [crizotinib]
Procedure, shortened: as §1

[5] = compound: C[C@H](C1=CC=C(C=C1)C(=O)NC2=C3C=CNC3=NC=C2)N
Procedure, shortened: as §1

duvelisib = compound: C[C@H](Nc1ncnc2nc[nH]c12)c1cc2cccc(Cl)c2c(=O)n1-c1ccccc1 [duvelisib]
Procedure, shortened: as §1

gandotinib = compound: Cc1cc(Nc2cc(CN3CCOCC3)c3nc(C)c(Cc4ccc(Cl)cc4F)n3n2)n[nH]1 [gandotinib]
Procedure, shortened: as §1

tozasertib = compound: Cc1cc(Nc2cc(N3CCN(C)CC3)nc(Sc3ccc(NC(=O)C4CC4)cc3)n2)n[nH]1 [tozasertib]
Procedure, shortened: as §1

doramapimod = compound: Cc1ccc(-n2nc(C(C)(C)C)cc2NC(=O)Nc2ccc(OCCN3CCOCC3)c3ccccc23)cc1 [doramapimod]
Procedure, shortened: as §1

bafetinib = compound: Cc1ccc(NC(=O)c2ccc(CN3CC[C@H](N(C)C)C3)c(C(F)(F)F)c2)cc1Nc1nccc(-c2cncnc2)n1 [bafetinib]
Procedure, shortened: as §1

[6] = compound: Cc1cccc(CC(=O)N2CCc3c2ccc(-c2cn(C)c4ncnc(N)c24)c3F)n1
Procedure, shortened: as §1

| Target | log2 fold change (alvocidib) | log2 fold change (Tubastatin A) | log2 fold change [1] | log2 fold change (defactinib) | log2 fold change [2] | log2 fold change (encorafenib) | log2 fold change [3] | log2 fold change (alisertib) | log2 fold change [4] | log2 fold change (gefitinib) | log2 fold change (lapatinib) | log2 fold change (pictilisib) | log2 fold change (crizotinib) | log2 fold change [5] | log2 fold change (duvelisib) | log2 fold change (gandotinib) | log2 fold change (tozasertib) | log2 fold change (doramapimod) | log2 fold change (bafetinib) | log2 fold change [6] |
| --- | --- | --- | --- | --- | --- | --- | --- | --- | --- | --- | --- | --- | --- | --- | --- | --- | --- | --- | --- | --- |
| MTERF3 (UniProt Q96E29) | inactive: 0 | inactive: 0.023 | inactive: 0.009 | inactive: 0.041 | inactive: 0.021 | inactive: 0.129 | inactive: 0.045 | inactive: 0.004 | inactive: 0.101 | inactive: 0.029 | inactive: -0.203 | inactive: 0.01 | inactive: -0.026 | inactive: 0.03 | inactive: 0.02 | inactive: 0.089 | inactive: 0.002 | inactive: -0.002 | inactive: -0.191 | inactive: 0.031 |
| MTRR isoform 1 (UniProt Q9UBK8) | inactive: -0.03 | inactive: 0.049 | inactive: 0.005 | inactive: 0.019 | inactive: -0.035 | inactive: 0.048 | inactive: 0.01 | inactive: -0.01 | inactive: 0.013 | inactive: 0 | inactive: 0.068 | inactive: -0.007 | inactive: -0.024 | inactive: -0.001 | inactive: 0.015 | inactive: -0.021 | inactive: -0.003 | inactive: 0.037 | inactive: -0.013 | inactive: 0.029 |
| MTDH (UniProt E5RJU9) | inactive: 0.041 | inactive: 0.149 | inactive: -0.054 | inactive: 0.033 | inactive: 0.186 | inactive: 0.192 | inactive: -0.011 | inactive: -0.013 | inactive: -0.015 | inactive: 0.238 | inactive: -0.281 | inactive: -0.05 | inactive: 0.204 | inactive: -0.218 | inactive: -0.243 | inactive: 0.141 | inactive: 0.212 | inactive: -0.037 | inactive: 0.104 | inactive: 0.074 |
| MTHFD1L (UniProt B7ZM99) | inactive: 0.029 | inactive: -0.084 | inactive: 0.02 | inactive: 0.034 | inactive: -0.01 | inactive: -0.041 | inactive: 0.072 | inactive: 0.032 | inactive: 0.009 | inactive: -0.007 | inactive: -0.075 | inactive: -0.036 | inactive: -0.036 | inactive: 0.017 | inactive: 0.026 | inactive: -0.039 | inactive: 0.002 | inactive: 0.035 | inactive: -0.054 | inactive: 0.018 |
| MTFR1 (UniProt Q15390) | inactive: -0.022 | inactive: -0.005 | inactive: 0.039 | inactive: -0.009 | inactive: -0.01 | inactive: 0.055 | inactive: -0.072 | inactive: -0.088 | inactive: -0.096 | inactive: -0.009 | inactive: -0.047 | inactive: 0.032 | inactive: 0.009 | inactive: -0.089 | inactive: -0.009 | inactive: -0.023 | inactive: 0.017 | inactive: -0.05 | inactive: -0.061 | inactive: 0.055 |
| MRTFB isoform 5 (UniProt Q9ULH7) | inactive: -0.027 | inactive: -0.077 | inactive: 0.035 | inactive: 0.014 | inactive: 0.051 | inactive: -0.001 | inactive: -0.049 | inactive: 0.006 | inactive: 0.02 | inactive: -0.003 | inactive: 0.038 | inactive: -0.015 | inactive: -0.029 | inactive: 0.018 | inactive: 0.021 | inactive: 0.021 | inactive: -0.036 | inactive: 0.006 | inactive: -0.033 | inactive: -0.016 |
| MRPL52 (UniProt Q86TS9) | inactive: -0.146 | inactive: 0.003 | inactive: -0.034 | inactive: 0.08 | inactive: 0.092 | inactive: -0.031 | inactive: 0.019 | inactive: -0.019 | inactive: -0.092 | inactive: 0.032 | inactive: 0.187 | inactive: 0.072 | inactive: 0.109 | inactive: -0.123 | inactive: -0.01 | inactive: 0.062 | inactive: 0.052 | inactive: -0.192 | inactive: 0.03 | inactive: 0.049 |
| MRPL43 isoform 4 (UniProt Q8N983) | inactive: 0.058 | inactive: 0.057 | inactive: -0.031 | inactive: -0.019 | inactive: -0.038 | inactive: 0.036 | inactive: -0.11 | inactive: 0.013 | inactive: -0.014 | inactive: -0.03 | inactive: 0.015 | inactive: 0.019 | inactive: -0.041 | inactive: 0.055 | inactive: 0.007 | inactive: -0.022 | inactive: 0.018 | inactive: 0.039 | inactive: -0.044 | inactive: -0.055 |
| MTMR12 (UniProt Q9C0I1) | inactive: -0.003 | inactive: 0.006 | inactive: 0.006 | inactive: 0.005 | inactive: 0.056 | inactive: 0.02 | inactive: 0.007 | inactive: -0.014 | inactive: 0.013 | inactive: -0.004 | inactive: 0.017 | inactive: -0.016 | inactive: 0.029 | inactive: -0.017 | inactive: -0.007 | inactive: 0.057 | inactive: -0.001 | inactive: 0.037 | inactive: -0.029 | inactive: 0.011 |
| MRPL38 (UniProt Q96DV4) | inactive: 0.038 | inactive: -0.035 | inactive: 0.039 | inactive: 0.01 | inactive: 0.008 | inactive: 0.039 | inactive: 0.036 | inactive: 0.02 | inactive: 0.006 | inactive: -0.038 | inactive: -0.078 | inactive: -0.078 | inactive: -0.064 | inactive: 0.058 | inactive: -0.016 | inactive: -0.073 | inactive: 0.078 | inactive: -0.018 | inactive: -0.054 | inactive: 0.009 |
| MTA3 (UniProt Q9BTC8) | inactive: -0.016 | inactive: -0.013 | inactive: 0.019 | inactive: 0.044 | inactive: -0.043 | inactive: 0.041 | inactive: 0.091 | inactive: 0.077 | inactive: 0.025 | inactive: -0.059 | inactive: 0.006 | inactive: 0.026 | inactive: -0.058 | inactive: -0.022 | inactive: 0.001 | inactive: -0.013 | inactive: -0.008 | inactive: 0.002 | inactive: -0.048 | inactive: 0.051 |
| MTMR2 (UniProt Q13614) | inactive: -0.008 | inactive: 0.044 | inactive: 0 | inactive: -0.012 | inactive: -0.026 | inactive: -0.001 | inactive: 0.034 | inactive: 0.094 | inactive: 0.015 | inactive: 0.078 | inactive: -0.022 | inactive: 0 | inactive: -0.05 | inactive: -0.013 | inactive: 0.003 | inactive: 0.022 | inactive: -0.035 | inactive: -0.019 | inactive: -0.008 | inactive: -0.003 |
| MSL1 (UniProt Q68DK7) | inactive: -0.115 | inactive: 0.109 | inactive: -0.018 | inactive: -0.144 | inactive: 0.107 | inactive: 0.161 | inactive: 0.094 | inactive: 0.021 | inactive: 0.104 | inactive: 0.03 | inactive: -0.06 | inactive: 0.026 | inactive: -0.038 | inactive: -0.096 | inactive: 0.057 | inactive: 0.108 | inactive: 0.028 | inactive: 0.109 | inactive: 0.006 | inactive: 0.074 |
| MTREX (UniProt P42285) | inactive: -0.007 | inactive: -0.005 | inactive: -0.001 | inactive: -0.004 | inactive: -0.002 | inactive: 0.003 | inactive: 0.027 | inactive: 0.003 | inactive: 0.006 | inactive: 0.005 | inactive: -0.007 | inactive: -0.014 | inactive: -0.021 | inactive: -0.014 | inactive: -0.011 | inactive: 0.034 | inactive: 0.001 | inactive: 0.013 | inactive: 0.009 | inactive: 0.036 |
| MRPL53 (UniProt Q96EL3) | inactive: 0.005 | inactive: -0.048 | inactive: -0.02 | inactive: 0.051 | inactive: -0.048 | inactive: -0.036 | active: -0.226 | inactive: 0.049 | inactive: 0 | inactive: -0.048 | inactive: 0.022 | inactive: -0.004 | inactive: 0.031 | inactive: 0.079 | inactive: 0 | inactive: -0.04 | inactive: 0.016 | inactive: 0.009 | inactive: 0.005 | inactive: 0.012 |
| MTMR1 (UniProt Q13613) | inactive: -0.031 | inactive: -0.064 | inactive: -0.015 | inactive: 0.015 | inactive: -0.022 | inactive: 0.019 | inactive: 0.098 | inactive: 0.032 | inactive: -0.008 | inactive: 0.014 | inactive: 0.033 | inactive: 0.015 | inactive: 0.07 | inactive: 0.097 | inactive: -0.036 | inactive: -0.067 | inactive: -0.01 | inactive: -0.049 | inactive: -0.032 | inactive: -0.017 |

Complete entries, quoted from the list. Values in the order: log2 fold change (alvocidib)	log2 fold change (Tubastatin A)	log2 fold change [1]	log2 fold change (defactinib)	log2 fold change [2]	log2 fold change (encorafenib)	log2 fold change [3]	log2 fold change (alisertib)	log2 fold change [4]	log2 fold change (gefitinib)	log2 fold change (lapatinib)	log2 fold change (pictilisib)	log2 fold change (crizotinib)	log2 fold change [5]	log2 fold change (duvelisib)	log2 fold change (gandotinib)	log2 fold change (tozasertib)	log2 fold change (doramapimod)	log2 fold change (bafetinib)	log2 fold change [6]
MRPL38 (UniProt Q96DV4) is listed as inactive: 0.038	inactive: -0.035	inactive: 0.039	inactive: 0.01	inactive: 0.008	inactive: 0.039	inactive: 0.036	inactive: 0.02	inactive: 0.006	inactive: -0.038	inactive: -0.078	inactive: -0.078	inactive: -0.064	inactive: 0.058	inactive: -0.016	inactive: -0.073	inactive: 0.078	inactive: -0.018	inactive: -0.054	inactive: 0.009
MTDH (UniProt E5RJU9) is listed as inactive: 0.041	inactive: 0.149	inactive: -0.054	inactive: 0.033	inactive: 0.186	inactive: 0.192	inactive: -0.011	inactive: -0.013	inactive: -0.015	inactive: 0.238	inactive: -0.281	inactive: -0.05	inactive: 0.204	inactive: -0.218	inactive: -0.243	inactive: 0.141	inactive: 0.212	inactive: -0.037	inactive: 0.104	inactive: 0.074
